In paper PMC10802717:
No constants are given. Whether binding was seen depends on the method and setting. In cells and extracts the contact can be indirect. Binding can be weak; no strength is given.

Sequences of proteins named here, by UniProt entry; tags and fusion partners are left off. A change or cut given only in a name is not applied to a line headed by its entry.
UniProt Q00987: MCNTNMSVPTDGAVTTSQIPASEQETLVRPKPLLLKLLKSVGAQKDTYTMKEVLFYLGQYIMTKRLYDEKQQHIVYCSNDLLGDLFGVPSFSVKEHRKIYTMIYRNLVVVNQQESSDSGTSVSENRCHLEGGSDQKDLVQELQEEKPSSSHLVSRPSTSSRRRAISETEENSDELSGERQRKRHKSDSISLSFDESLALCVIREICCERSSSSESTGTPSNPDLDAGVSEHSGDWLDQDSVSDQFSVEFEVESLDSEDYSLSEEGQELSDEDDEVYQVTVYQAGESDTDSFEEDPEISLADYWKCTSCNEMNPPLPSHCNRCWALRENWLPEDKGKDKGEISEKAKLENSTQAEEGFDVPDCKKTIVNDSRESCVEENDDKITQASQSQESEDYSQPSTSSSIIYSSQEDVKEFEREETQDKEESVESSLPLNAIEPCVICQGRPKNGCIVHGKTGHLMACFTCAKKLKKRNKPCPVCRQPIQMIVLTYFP

Molecular target: T1, endogenous TRIM26 (human (endogenous in HCT116)) (UniProt Q12899)
T1 sequence: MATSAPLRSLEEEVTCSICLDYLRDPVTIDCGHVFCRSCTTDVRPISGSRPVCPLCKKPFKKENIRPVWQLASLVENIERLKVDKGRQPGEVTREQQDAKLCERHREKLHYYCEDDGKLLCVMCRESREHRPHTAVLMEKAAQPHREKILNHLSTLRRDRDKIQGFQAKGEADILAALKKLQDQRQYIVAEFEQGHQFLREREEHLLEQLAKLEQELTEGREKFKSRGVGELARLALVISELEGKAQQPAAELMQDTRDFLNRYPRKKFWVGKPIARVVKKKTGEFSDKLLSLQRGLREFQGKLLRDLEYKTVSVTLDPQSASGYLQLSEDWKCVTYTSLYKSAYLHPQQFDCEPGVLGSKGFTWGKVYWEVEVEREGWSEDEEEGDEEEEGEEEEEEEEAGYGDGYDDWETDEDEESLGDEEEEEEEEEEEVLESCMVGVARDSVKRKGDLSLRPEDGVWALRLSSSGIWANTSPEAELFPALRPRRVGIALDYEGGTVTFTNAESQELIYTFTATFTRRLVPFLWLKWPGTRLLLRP
Assay: co-IP; HCT116 p53+/+ lysate, anti-TRIM26 antibody against non-specific IgG, then Western blot; 4°C; lysis buffer 50 mM Tris/HCl pH 7.5, 0.5% NP-40, 1 mM EDTA, 150 mM NaCl, 1 mM DTT

binding: binds
Substance: endogenous MDM2 (from UniProt Q00987) (enzyme)
